{"source": "patent US8329645B2", "about": "“Polymyxin derivatives and uses thereof” (priority 2008, dated 2012)", "key": {"E. coli ATCC25922": {"test_system": "E. coli ATCC25922", "description": "(§1) MICs were determined by using E-strips (Biodisk Ltd., Solna, Sweden) according to the manufacturer's instructions.\n(§2) The strains originated from ATCC (11 strains), CCUG (11 strains), and NCTC (The National Collection of Type Cultures, Colindale, U.K.; 2 strains). Eight strains (the F-strains) were purchased from Mobidiag Ltd., Helsinki, Finland."}, "Ac. baumannii F263": {"test_system": "Ac. baumannii F263", "test": "E-test MIC with or without NAB7061 (4 μg/ml), Mueller-Hinton agar", "type": "cell-based, Acinetobacter baumannii", "description": "as §1, §2"}, "Ac. baumannii F264": {"test_system": "Ac. baumannii F264", "test": "E-test MIC with or without NAB7061 (4 μg/ml), Mueller-Hinton agar", "type": "cell-based, Acinetobacter baumannii", "description": "as §1, §2"}}, "note": "Some entries share one result that the patent states for a list of compounds."}
{"smiles": "C[C@H]1COc2c(N3CCN(C)CC3)c(F)cc3c(=O)c(C(=O)O)cn1c23", "note": "[levofloxacin]", "values": [{"measurement": "Sensitization factor to antibiotic (MIC without / with 4 μg/ml of NAB 7061)", "setting": "E. coli ATCC25922", "value": "< 2"}]}
{"smiles": "CCN1CCN(C(=O)N[C@@H](C(=O)N[C@@H]2C(=O)N3[C@@H]2SC(C)(C)[C@@H]3C(=O)O)c2ccccc2)C(=O)C1=O", "note": "[piperacillin]", "values": [{"measurement": "Sensitization factor to antibiotic (MIC without / with 4 μg/ml of NAB 7061)", "setting": "E. coli ATCC25922", "value": "< 2"}]}
{"smiles": "NC[C@H]1O[C@H](O[C@H]2[C@H](O)[C@@H](O[C@H]3O[C@H](CO)[C@@H](O)[C@H](N)[C@H]3O)[C@H](N)C[C@@H]2N)[C@H](N)C[C@@H]1O", "note": "[tobramycin]", "values": [{"measurement": "Sensitization factor to antibiotic (MIC without / with 4 μg/ml of NAB 7061)", "setting": "E. coli ATCC25922", "value": "< 2"}]}
{"smiles": "C[C@@H](O)[C@H]1C(=O)N2C(C(=O)O)=C(SCCN=CN)C[C@H]12", "note": "[imipenem]", "values": [{"measurement": "Sensitization factor to antibiotic (MIC without / with 4 μg/ml of NAB 7061)", "setting": "Ac. baumannii F263", "value": "≥ 4"}, {"measurement": "Sensitization factor to antibiotic (MIC without / with 4 μg/ml of NAB 7061)", "setting": "Ac. baumannii F264", "value": "≥ 4"}]}
{"smiles": "CC(C)(O/N=C(\\C(=O)N[C@@H]1C(=O)N2C(C(=O)[O-])=C(C[n+]3ccccc3)CS[C@H]12)c1csc(N)n1)C(=O)O", "note": "[ceftazidime]", "values": [{"measurement": "Sensitization factor to antibiotic (MIC without / with 4 μg/ml of NAB 7061)", "setting": "E. coli ATCC25922", "value": "< 2"}]}
{"smiles": "C[C@@H](O)[C@H]1C(=O)N2C(C(=O)O)=C(S[C@@H]3CN[C@H](C(=O)N(C)C)C3)[C@H](C)[C@H]12", "note": "[meropenem]", "values": [{"measurement": "Sensitization factor to antibiotic (MIC without / with 4 μg/ml of NAB 7061)", "setting": "E. coli ATCC25922", "value": "< 2"}, {"measurement": "Sensitization factor to antibiotic (MIC without / with 4 μg/ml of NAB 7061)", "setting": "Ac. baumannii F263", "value": "≥ 4"}, {"measurement": "Sensitization factor to antibiotic (MIC without / with 4 μg/ml of NAB 7061)", "setting": "Ac. baumannii F264", "value": "≥ 4"}]}
{"smiles": "CO/N=C(\\C(=O)N[C@@H]1C(=O)N2C(C(=O)O)=C(COC(C)=O)CS[C@H]12)c1csc(N)n1", "note": "[cefotaxime]", "values": [{"measurement": "Sensitization factor to antibiotic (MIC without / with 4 μg/ml of NAB 7061)", "setting": "E. coli ATCC25922", "value": "< 2"}]}
